Here are results for one sequence from PMC4090178, “Structural and Biochemical Characterization of Human PR70 in Isolation and in Complex with the Scaffolding Subunit of Protein Phosphatase 2A” (PLoS ONE, 2014).

Amino acid sequences for entries named in this document (tags omitted).
UniProt P30153: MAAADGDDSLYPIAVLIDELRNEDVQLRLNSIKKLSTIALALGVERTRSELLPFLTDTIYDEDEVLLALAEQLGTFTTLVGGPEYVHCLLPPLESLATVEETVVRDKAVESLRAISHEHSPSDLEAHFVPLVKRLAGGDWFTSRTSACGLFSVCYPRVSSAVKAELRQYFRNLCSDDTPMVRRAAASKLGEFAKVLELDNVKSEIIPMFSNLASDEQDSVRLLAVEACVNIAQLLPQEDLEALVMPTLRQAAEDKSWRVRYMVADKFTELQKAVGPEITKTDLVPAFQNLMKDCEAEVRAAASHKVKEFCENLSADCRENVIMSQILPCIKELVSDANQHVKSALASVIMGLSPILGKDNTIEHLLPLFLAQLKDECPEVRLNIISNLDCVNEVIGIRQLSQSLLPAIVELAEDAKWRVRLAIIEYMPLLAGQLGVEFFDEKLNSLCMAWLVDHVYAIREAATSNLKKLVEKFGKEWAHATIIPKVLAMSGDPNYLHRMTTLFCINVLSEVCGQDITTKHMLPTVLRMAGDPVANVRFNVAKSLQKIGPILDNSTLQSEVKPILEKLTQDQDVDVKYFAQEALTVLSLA

No constants are given. Whether binding was seen depends on the method and setting.

The target in one assay is T1, PR70 (485–575) (human) (UniProt Q9Y5P8).
T1 sequence: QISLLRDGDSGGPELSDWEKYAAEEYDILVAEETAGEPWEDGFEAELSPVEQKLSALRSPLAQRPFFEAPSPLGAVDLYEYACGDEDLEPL
Put plainly: ITC; B''-constructs at 20–40 µM in the cell titrated with 200–300 µM Aα or Aβ constructs; 15°C; 20 mM Tris pH 7.5, 200 mM NaCl, 2 mM CaCl2; 1:1 binding model; both purified.

A further assay has as its target T2, PR72 (92–449) (UniProt Q06190).
T2 sequence: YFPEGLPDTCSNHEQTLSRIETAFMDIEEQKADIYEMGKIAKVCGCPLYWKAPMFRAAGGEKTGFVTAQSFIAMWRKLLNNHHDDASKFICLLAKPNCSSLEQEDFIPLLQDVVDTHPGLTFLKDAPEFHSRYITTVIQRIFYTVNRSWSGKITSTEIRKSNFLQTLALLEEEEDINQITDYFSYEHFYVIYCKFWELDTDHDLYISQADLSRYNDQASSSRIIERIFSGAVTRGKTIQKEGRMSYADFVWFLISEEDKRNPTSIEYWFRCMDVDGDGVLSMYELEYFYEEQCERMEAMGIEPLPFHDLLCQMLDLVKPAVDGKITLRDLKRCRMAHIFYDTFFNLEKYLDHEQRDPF
The assay is described as above.

Consider “A α (HEAT1–15) (from UniProt P30153 1-589)”, for which the binding entry with PR70 (485–575) (human) and in the assay with PR72 (92–449) was “no binding” each time.
